Experiment [1] concerns the target V. cholerae NQR complex (Vibrio cholerae serotype O1, UniProt Q9KPS2+Q9X4Q6). The experiment is described as follows: biochemical.
Experiment [2] has as its target NQR (Vibrio cholerae serotype O1, UniProt Q9KPS2+Q9X4Q6). The experiment is described as follows: biochemical.

Molecules are shown by their SMILES. Where “and” joins values, the source holds several entries; their conditions need not be identical. Equal entries are not always repeated.

Regarding `CN1CCN(CCCN2c3ccccc3Sc3ccc(Cl)cc32)CC1` [prochlorperazine], the “inhibition of the ubiquinone reductase activity” value in experiment [1] is given as “did not produce a comparable inhibition”.

`CSc1ccc2c(c1)N(CCC1CCCCN1C)c1ccccc1S2` (centres unmarked) [thioridazine] yielded an IC50 in experiment [1] of 22 ± 6 µM. The inhibition at 50 µM in experiment [1] (read-out: inhibition of the ubiquinone reductase activity) stood at 60%. Moreover, the Ki is 35 µM and 70 µM in experiment [2] (Kic); 38 µM and 37 µM in experiment [2] (Kiu).

A word on the IC50: it is the midpoint of a concentration-inhibition curve. A high value points to a need for much substance. In general, inhibition refers to the percentage by which the read-out fell short of the control. One may read the Ki as a measure of affinity in units of concentration, obtained from inhibition or displacement. Read a high Ki as a looser hold on the target.

The values are drawn from PMC12336824 (The Journal of Biological Chemistry, 2025).
